From patent US20160199338A1, “COMPOSITIONS CONTAINING MONOACETYLDIACYLGLYCEROL COMPOUND AS AN ACTIVE INGREDIENT FOR PREVENTING OR TREATING RHEUMATOID ARTHRITIS” (ENZYCHEM LIFESCIENCES CORPORATION, priority 2013, published 2016)
At least one structure is not confirmed: it was looked up by name or label, or the drawing left a doubt.

Amino acid sequences for entries named in this document (tags omitted).
UniProt P40763, whole entry: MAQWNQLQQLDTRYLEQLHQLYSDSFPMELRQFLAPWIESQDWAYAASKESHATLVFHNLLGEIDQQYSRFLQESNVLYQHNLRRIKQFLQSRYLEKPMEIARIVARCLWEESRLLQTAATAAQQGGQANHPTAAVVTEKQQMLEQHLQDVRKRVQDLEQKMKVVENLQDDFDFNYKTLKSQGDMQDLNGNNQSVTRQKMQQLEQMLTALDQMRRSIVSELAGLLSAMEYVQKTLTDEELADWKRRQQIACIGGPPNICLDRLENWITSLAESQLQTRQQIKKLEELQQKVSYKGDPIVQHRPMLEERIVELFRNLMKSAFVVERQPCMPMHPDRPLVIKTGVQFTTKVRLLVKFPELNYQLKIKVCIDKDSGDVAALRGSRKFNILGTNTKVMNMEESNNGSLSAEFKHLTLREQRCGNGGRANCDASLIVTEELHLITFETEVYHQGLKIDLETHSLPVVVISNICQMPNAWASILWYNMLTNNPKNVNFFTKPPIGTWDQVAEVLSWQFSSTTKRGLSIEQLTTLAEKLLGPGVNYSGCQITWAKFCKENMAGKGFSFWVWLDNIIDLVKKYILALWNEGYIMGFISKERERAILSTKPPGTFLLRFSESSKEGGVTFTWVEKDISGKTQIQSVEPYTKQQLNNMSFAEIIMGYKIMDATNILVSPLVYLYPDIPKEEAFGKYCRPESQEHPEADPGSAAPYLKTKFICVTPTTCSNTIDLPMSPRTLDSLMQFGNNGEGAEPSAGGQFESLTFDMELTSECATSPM

Columns and labels:
STAT-3 [1] = molecular target: T1, STAT-3 (Homo sapiens, UniProt P40763); experiment: Inhibition of IL-6-induced STAT-3 phosphorylation in U937 cells (western blot); type: cell-based
T1 construct: endogenous in cells; host or cells: U937, NK-92, A549, HepG2 (ATCC)

[2] = test system: arthritis induced by bovine type II collagen in male DBA/1J mouse; experiment: Collagen-induced arthritis animal model; type: in vivo
Procedure: For arthritis animal model experiment, arthritis was induced in male DBA/1J mouse by administering bovine type II collagen to the mouse. Efficacy of EC-18 for treating (or improving) arthritis was evaluated by repeatedly administering EC-18 to the mouse orally. For comparison, Remicade (positive control 1) was administered intraperitoneally and methotrexate (positive control 2) was administered orally. The experiment included seven groups: normal group (G1), negative control (G2), 125 mg/kg, 500 mg/kg and 2,000 mg/kg of EC-18 (EC-18 treatment groups, G3, G4, G5), 20 mg/kg of Remicade (Positive control 1, G6) and 2.5 mg/kg of Methotrexate (Positive control 2, G7). Each group consists of 10 mice. Olive oil was administered to normal group (G1) and negative control group (G2) as an excipient. In all groups, administration was made once a day for five weeks (a total of 35 administrations). Remicade (G6) was administered intraperitoneally, whereas EC-18, methotrexate and olive oil were administered orally in force. For all groups except normal Group (G1), arthritis was induced by immunizing animals twice with bovine type II collagen and complete Freund's adjuvant or incomplete Freund's adjuvant emulsion. During the observation period, common arthritis symptoms were observed once a day, weigh measured once a week, arthritic score evaluation made with the naked eye twice a week, foot thickness measured twice a week.

STAT-3 [3] = molecular target: T1, STAT-3; experiment: Inhibition of PMA-induced STAT-3 phosphorylation in NK-92 cells (western blot); type: cell-based; details: EC-18 pre-treatment in different concentrations (FIG. 2A)
STAT-3 [4] = molecular target: T1, STAT-3; experiment: STAT-3 activity by SIE luciferase reporter in A549 cells treated with IL-10; type: cell-based; details: EC-18 pre-treatment 1 hour, then 10 ng/ml IL-10 for 6 hours (FIG. 3A)
STAT-3 [5] = molecular target: T1, STAT-3; experiment: STAT-3 activity by SIE luciferase reporter in HepG2 cells treated with IL-10; type: cell-based; details: EC-18 pre-treatment 1 hour, then 10 ng/ml IL-10 for 6 hours (FIG. 3B)
sepsis animal model = details: cecal-ligation-puncture sepsis model; cited from earlier work
STAT-1 = molecular target: T2, STAT-1 (Homo sapiens, UniProt P42224); experiment: PMA-induced STAT-1 phosphorylation in NK-92 cells (western blot); type: cell-based; details: PMA (FIG. 2B)
T2 construct: endogenous in cells; host or cells: NK-92 (ATCC)
T2 sequence (P42224 1-750): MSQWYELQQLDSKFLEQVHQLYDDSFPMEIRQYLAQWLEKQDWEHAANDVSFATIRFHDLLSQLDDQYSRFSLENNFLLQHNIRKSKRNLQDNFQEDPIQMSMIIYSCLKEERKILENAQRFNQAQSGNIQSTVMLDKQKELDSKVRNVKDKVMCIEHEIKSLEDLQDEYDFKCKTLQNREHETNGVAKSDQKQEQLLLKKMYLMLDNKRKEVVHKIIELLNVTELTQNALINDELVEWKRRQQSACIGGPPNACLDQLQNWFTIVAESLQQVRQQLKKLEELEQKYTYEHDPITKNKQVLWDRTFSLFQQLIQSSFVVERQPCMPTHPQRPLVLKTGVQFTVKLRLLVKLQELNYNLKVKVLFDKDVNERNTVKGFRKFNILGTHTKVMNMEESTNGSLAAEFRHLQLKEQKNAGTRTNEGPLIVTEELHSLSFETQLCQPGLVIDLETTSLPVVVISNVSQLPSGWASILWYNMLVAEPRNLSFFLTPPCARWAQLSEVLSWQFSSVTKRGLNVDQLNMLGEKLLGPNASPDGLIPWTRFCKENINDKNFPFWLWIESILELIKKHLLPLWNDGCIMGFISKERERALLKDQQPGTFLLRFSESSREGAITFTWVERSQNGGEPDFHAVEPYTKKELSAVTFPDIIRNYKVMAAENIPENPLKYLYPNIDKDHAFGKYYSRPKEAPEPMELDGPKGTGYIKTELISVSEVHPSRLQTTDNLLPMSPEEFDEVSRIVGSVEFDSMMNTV

CCCCC/C=C\C/C=C\CCCCCCCC(=O)OC(COC(C)=O)COC(=O)CCCCCCCCCCCCCCC (centres unmarked) [EC-18, 1-palmitoyl-2-linoleoyl-3-acetylglycerol]
amount of phosphorylated STAT-3 (STAT-3 [1]; IL-6, EC-18 pre-treatment in different concentrations, 15 minutes (FIG. 1A)): decreased by the pre-treatment of EC-18 in a concentration-dependent manner | inhibitory effect on STAT-3 phosphorylation (STAT-3 [1]; IL-6, EC-18 treated for 60 minutes (FIG. 1B)): maintained after 1 hour | crushing of cartilage and increase of Pannus (stained arthritic tissue) ([2]; EC-18 500 mg/kg (G4), Remicade 20 mg/kg (G6), vs negative control (FIGS. 7 and 8)): reduced | arthritis score evaluated by the examination with naked eye ([2]; EC-18 125, 500, 2,000 mg/kg oral once a day for five weeks, vs negative control (FIG. 5)): significantly decreased | histopathological arthritis score of knee joint ([2]; knee joint of both hind legs, EC-18 125, 500, 2,000 mg/kg oral, Remicade 20 mg/kg intraperitoneal, methotrexate 2.5 mg/kg oral, vs negative control (FIG. 6)): reduced | concentration of IL-6 in serum ([2]; serum collected at day of tissue excision, once a day for five weeks, EC-18 125, 500, 2,000 mg/kg oral, Remicade 20 mg/kg intraperitoneal, methotrexate 2.5 mg/kg oral, vs negative control (FIG. 4)): reduced | amount of phosphorylated STAT-3 (STAT-3 [3]): decreased by the pre-treatment of EC-18 in a concentration-dependent manner | STAT-3 activation induced by IL10 (luciferase fluorescence) (STAT-3 [4]): decreased | STAT-3 activation induced by IL10 (luciferase fluorescence) (STAT-3 [5]): decreased | survivability ratio of animals (sepsis animal model): increases | STAT-1 phosphorylation (STAT-1): does not inhibit
